Experimental data reported in patent US8410289B2, “Spirocyclic 3'-alkoxytetramic acids and-tetronic acids” (Bayer Cropscience AG, priority 2004, dated 2013).
Some results were stated once for a whole list of compounds, not compound by compound. For at least one compound, name, drawing or mass did not settle the structure.

How the values were obtained:
Assay type in all cases: in vivo
Myzus persicae = experiment: Myzus test (spray treatment); settings: active compound concentration 500 g/ha, Chinese cabbage discs
Phaedon cochleariae = experiment: Phaedon test (spray treatment); settings: active compound concentration 500 g/ha, larvae on Chinese cabbage discs
Tetranychus urticae = experiment: Tetranychus test (OP-resistant/spray treatment); settings: active compound concentration 100 g/ha, spray treatment, bean leaf discs, OP-resistant

SMILES | kill rate against Myzus persicae (Myzus persicae) | kill rate against Phaedon cochleariae (Phaedon cochleariae) | kill rate against Tetranychus urticae (Tetranychus urticae)
COC1CCCC2(C1)NC(=O)C(c1cc(C)ccc1C)=C2O (single isomer, unassigned) [Example I-1-a-24] | ≥ 90% | ≥ 90% | 
COC1CCCC2(C1)NC(=O)C(c1c(C)cc(C)cc1C)=C2O (mixture of isomers) [Example I-1-a-2] | ≥ 90% | ≥ 90% | 
COC1CCCC2(C1)OC(=O)C(c1cc(-c3ccc(Cl)cc3)c(C)cc1C)=C2OC(=O)C(C)C (stereo not shown) [Example I-2-b-2] | ≥ 90% |  | 
CCc1cc(Cl)c(C2=C(O)C3(CCCC(OC)C3)OC2=O)c(Br)c1 (stereo not shown) [Example I-2-a-29] | ≥ 90% |  | 
COC1CCCC2(C1)NC(=O)C(c1cc(C)c(C)cc1C)=C2O (single isomer, unassigned) [Example I-1-a-21] | ≥ 90% | ≥ 90% | 
CO[C@H]1CCC[C@@]2(C1)OC(=O)C(c1cc(-c3ccc(Cl)cc3)c(C)cc1C)=C2OC(=O)OC(C)C [Example I-2-c-1] | ≥ 90% |  | ≥ 70%
COC1CCCC2(C1)OC(=O)C(c1cc(C)ccc1Br)=C2O (mixture of isomers) [Example I-2-a-49] | ≥ 90% |  | 
Cc1cc(C)c(C2=C(O)C3(CC(OCC(C)C)CC(C)(C)C3)NC2=O)c(C)c1 (single isomer, unassigned) [Example I-1-a-4] |  |  | ≥ 70%
CCc1cc(Br)cc(Br)c1C1=C(O)C2(CCCC(OC)C2)OC1=O (stereo not shown) [Example I-2-a-26] | ≥ 90% |  | 
COC1CCCC2(C1)OC(=O)C(c1c(C)cc(C)cc1Cl)=C2O (stereo not shown) [Example I-2-a-27] | ≥ 90% |  | 
COc1cc(C)cc(C)c1C1=C(OC(=O)C(C)C)C2(CCCC(OC)C2)OC1=O (stereo not shown) [Example I-2-b-5] | ≥ 90% |  | ≥ 70%
CCOC1CCCC2(C1)NC(=O)C(c1c(Br)cc(C)cc1CC)=C2O (single isomer, unassigned) [Example I-1-a-7] |  |  | ≥ 70%
CCOC1CCCC2(C1)NC(=O)C(c1cc(C)ccc1C)=C2O (single isomer, unassigned) [Example I-1-a-15] | ≥ 90% | ≥ 90% | ≥ 70%
COc1cc(C)cc(C)c1C1=C(OC(=O)C(C)C)C2(CCCC(OC)C2)OC1=O (stereo not shown) [Example I-2-b-6] | ≥ 90% |  | ≥ 70%
CCCCOC1CCCC2(C1)NC(=O)C(c1c(Cl)cc(Br)cc1CC)=C2O (single isomer, unassigned) [Example I-1-a-8] | ≥ 90% | ≥ 90% | 
CCOC1CCCC2(C1)OC(=O)C(c1c(C)cc(-c3ccc(Cl)cc3)cc1CC)=C2O (stereo not shown) [Example I-2-a-17] |  | ≥ 90% | 
COc1ccc(C2=C(O)C3(CCCC(OC)C3)OC2=O)c(C)c1 (mixture of isomers) [Example I-2-a-50] | ≥ 90% |  | 
COC1CCCC2(C1)OC(=O)C(c1ccc(Cl)cc1Cl)=C2O (mixture of isomers) [Example I-2-a-39] | ≥ 90% |  | 
COC1CCCC2(C1)OC(=O)C(c1cc(C)c(Br)cc1Br)=C2O (stereo not shown) [Example I-2-a-18] | ≥ 90% |  | 
COC1CCCC2(C1)OC(=O)C(c1cc(-c3cccc(Cl)c3)ccc1Cl)=C2O (stereo not shown) [Example I-2-a-34] | ≥ 90% |  | 

SMILES | kill rate against Myzus persicae (Myzus persicae) | kill rate against Phaedon cochleariae (Phaedon cochleariae) | kill rate against Tetranychus urticae (Tetranychus urticae)
COC1CCCC2(C1)OC(=O)C(c1cc(F)c(C)cc1C)=C2O (mixture of isomers) [Example I-2-a-45] | ≥ 90% |  | 
COC1CCCC2(C1)OC(=O)C(c1c(C)cc(Cl)cc1Cl)=C2O (stereo not shown) [Example I-2-a-20] | ≥ 90% |  | 
COC1CCCC2(C1)OC(=O)C(c1c(C)cc(Br)cc1C)=C2O (stereo not shown) [Example I-2-a-10] | ≥ 90% |  | 
COC1CCCC2(C1)OC(=O)C(c1cc(C)ccc1C)=C2O (mixture of isomers) [Example I-2-a-35] | ≥ 90% |  | 
COC1CCCC2(C1)OC(=O)C(c1c(C)cc(C)c(C)c1C)=C2O (stereo not shown) [Example I-2-a-12] | ≥ 90% | ≥ 90% | 
COC1CCCC2(C1)OC(=O)C(c1c(C)cc(C)c(F)c1C)=C2O (stereo not shown) [Example I-2-a-54] | ≥ 90% |  | 
COC1CCCC2(C1)OC(=O)C(c1cc(-c3ccc(Cl)cc3)c(C)cc1C)=C2OC(=O)OC(C)C (stereo not shown) [Example I-2-c-2] | ≥ 90% |  | ≥ 70%
COC1CCCC2(C1)OC(=O)C(c1ccc(Cl)cc1Br)=C2O (mixture of isomers) [Example I-2-a-36] | ≥ 90% |  | 
CCCOC1CCCC2(C1)NC(=O)C(c1c(Br)cc(C)cc1CC)=C2O (single isomer, unassigned) [Example I-1-a-10] | ≥ 90% |  | ≥ 70%
COC1CCCC2(C1)OC(=O)C(c1ccc(Cl)cc1C)=C2O (single isomer, unassigned) [Example I-2-a-6] | ≥ 90% |  | 
COC1CCCC2(C1)OC(=O)C(c1c(C)cc(Cl)cc1Br)=C2O (mixture of isomers) [Example I-2-a-4] | ≥ 90% |  | 
CCOC1CCCC2(C1)NC(=O)C(c1cc(C)c(C)cc1C)=C2O (single isomer, unassigned) [Example I-1-a-29] |  |  | ≥ 70%
COC1CCCC2(C1)OC(=O)C(c1ccc(C)cc1Cl)=C2O (stereo not shown) [Example I-2-a-22] | ≥ 90% |  | 
COC1CCCC2(C1)OC(=O)C(c1ccccc1C)=C2O (stereo not shown) [Example I-2-a-7] | ≥ 90% |  | 
CCCCOC1CCCC2(C1)NC(=O)C(c1c(Cl)cc(Cl)cc1CC)=C2O (single isomer, unassigned) [Example I-1-a-32] | ≥ 90% |  | ≥ 70%
COC1CCCC2(C1)OC(=O)C(c1c(Cl)cc(C)cc1Br)=C2O (stereo not shown) [Example I-2-a-5] | ≥ 90% |  | 
COCCOC1CCCC2(C1)NC(=O)C(c1c(C)cc(C)cc1C)=C2O (single isomer, unassigned) [Example I-1-a-46] |  | ≥ 90% | 
CCc1cc(Cl)cc(Br)c1C1=C(O)C2(CCCC(OC)C2)NC1=O (single isomer, unassigned) [Example I-1-a-52] | ≥ 90% |  | ≥ 70%
CCCOC1CCCC2(C1)NC(=O)C(c1c(C)cc(C)cc1C)=C2O (single isomer, unassigned) [Example I-1-a-19] | ≥ 90% | ≥ 90% | 
COC1CCCC2(C1)OC(=O)C(c1c(C)cc(C)cc1Br)=C2O (stereo not shown) [Example I-2-a-28] | ≥ 90% |  | 

SMILES | kill rate against Myzus persicae (Myzus persicae) | kill rate against Phaedon cochleariae (Phaedon cochleariae) | kill rate against Tetranychus urticae (Tetranychus urticae)
COc1cc(C)cc(C)c1C1=C(OC(=O)OC(C)C)C2(CCCC(OC)C2)OC1=O (stereo not shown) [Example I-2-c-5] | ≥ 90% |  | ≥ 70%
COC1CCCC2(C1)OC(=O)C(c1c(Cl)cc(C)cc1Cl)=C2O (stereo not shown) [Example I-2-a-21] | ≥ 90% |  | 
COc1cc(C)cc(C)c1C1=C(OC(=O)OC(C)C)C2(CCCC(OC)C2)OC1=O (stereo not shown) [Example I-2-c-6] | ≥ 90% |  | ≥ 70%
CCCCOC1CCCC2(C1)NC(=O)C(c1cc(-c3ccc(Cl)cc3)ccc1C)=C2O (single isomer, unassigned) [Example I-1-a-5] |  | ≥ 90% | 
CCc1cc(C)cc(Br)c1C1=C(O)C2(CCCC(OC)C2)NC1=O (single isomer, unassigned) [Example I-1-a-16] | ≥ 90% |  | 
CCCCOC1CC(C)(C)CC2(C1)NC(=O)C(c1c(C)cc(C)cc1C)=C2O (single isomer, unassigned) [Example I-1-a-42] |  |  | ≥ 70%
COC1CCCC2(C1)OC(=O)C(c1c(C)cc(C)cc1C)=C2OC(=O)OC(C)C (stereo not shown) [Example I-2-c-3] | ≥ 90% |  | ≥ 70%
COC1CCCC2(C1)OC(=O)C(c1c(C)ccc(Cl)c1C)=C2O (mixture of isomers) [Example I-2-a-46] | ≥ 90% |  | 
COCCOC1CCCC2(C1)NC(=O)C(c1c(C)cc(C)cc1C)=C2O (single isomer, unassigned) [Example I-1-a-45] |  |  | ≥ 70%
CCOC1CCCC2(C1)NC(=O)C(c1cc(C)c(C)cc1C)=C2O (single isomer, unassigned) [Example I-1-a-28] | ≥ 90% | ≥ 90% | 
COC1CCCC2(C1)OC(=O)C(c1c(C)cc(C)cc1C)=C2OC(=O)C(C)C (stereo not shown) [Example I-2-b-4] | ≥ 90% |  | ≥ 70%
COC1CCCC2(C1)OC(=O)C(c1c(Cl)ccc(C)c1Cl)=C2O (mixture of isomers) [Example I-2-a-52] | ≥ 90% |  | 
COC1CCCC2(C1)OC(=O)C(c1c(Cl)cccc1Cl)=C2O (stereo not shown) [Example I-2-a-15] | ≥ 90% |  | 
COC1CCCC2(C1)OC(=O)C(c1cc(-c3cccc(Cl)c3)ccc1C)=C2O (stereo not shown) [Example I-2-a-33] | ≥ 90% | ≥ 90% | 
COC1CCCC2(C1)OC(=O)C(c1cc(C)c(C)cc1Br)=C2O (stereo not shown) [Example I-2-a-9] | ≥ 90% |  | 
COC1CCCC2(C1)OC(=O)C(c1ccc(Br)cc1Cl)=C2O (mixture of isomers) [Example I-2-a-37] | ≥ 90% |  | 
CCCOC1CCCC2(C1)NC(=O)C(c1cc(C)c(C)cc1C)=C2O (single isomer, unassigned) [Example I-1-a-44] |  | ≥ 90% | 
COC1CCCC2(C1)OC(=O)C(c1c(C)cc(Br)c(C)c1Br)=C2O (mixture of isomers) [Example I-2-a-47] | ≥ 90% |  | 
